Assay results published in PubChem BioAssay AID2685 (National Center for Advancing Translational Sciences (NCATS), 2010).
Some of the results follow. These are further read-outs of the screen, such as a control signal, another cell line or another target. No call is given for them. Most of these compounds were active or inconclusive in the main read-out, so they are no random draw. The note in brackets gives the kind of curve behind each potency; many fits are weak.

Assay: qHTS Assay for Lipid Storage Modulators in Drosophila S3 Cells;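 as to cell number change: cells counted by Cell Tracker Red CMTPX staining in the red channel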
Details: BODIPY lipid droplet fluorescence, 18-24 h; for cell number change: measured here: cell count max response, cells fed with added oleic acid
In short: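 Drosophila S3 cells loaded with oleic acid (400 uM, as added) and compounds at several concentrations; lipid droplets imaged by 488-nm laser-scanning cytometry, 500–530 nm intensity and object ratio to cell channel. Percent activity normalized to 20 uM Triacsin C.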

[1] = measured here: cell number channel AC50, cells fed with added oleic acid
[2] = measured here: lipid fluorescence (Fed channel) AC50, cells fed with added oleic acid

Row | SMILES | cell number change [%] | AC50 [1] | AC50 [2]
1 | CC1SC2(NC1=O)C1CC3CC(C1)CC2C3 (centres undefined) | 21 |  | 
2 | O=C(O)CN1C(=O)S/C(=C\c2cccnc2)C1=O | -1.63 | 0.00517 µM [falling, full curve, poor fit] | 
3 | Cc1ncc([N+](=O)[O-])n1CCOC(=O)C12CC3CC(CC(C3)C1)C2 | -10.1 | 2.51 µM [falling, partial curve] | 2.82 µM [falling, single point]
4 | O=C(NC1CCCCC1)c1ccc2[nH]c(=O)c(=O)[nH]c2c1 | 23.5 |  | 20.6 µM [rising, single point]
5 | CC12CCC(C(=O)Nc3ccc(Cl)cc3)([C@H](Br)C1=O)C2(C)C (some centres undefined) | 17.9 | 5.8 µM [rising, single point] | 
6 | CC(C)(C)CC(=O)Nc1nnc(SCC(=O)N2CCCCC2)s1 | 15.8 | 2.06 µM [rising, partial curve, poor fit] | 
7 | N#CCOC(=O)c1cc(S(=O)(=O)N2CCCCC2)ccc1N1CCOCC1 | -10.2 |  | 0.651 µM [rising, partial curve]
8 | C=CCn1c(-c2cccc(OC)c2)n[nH]c1=S | 41.9 | 4.61 µM [rising, partial curve] | 1.84 µM [rising, partial curve]
9 | O=C1c2ccccc2-c2onc3ccc(N4CCCC4)c1c23 | -38.2 | 4.61 µM [falling, partial curve] | 
10 | O=c1[nH]c(/C=C/c2ccc(Br)cc2)nc2ccccc12 | 17.1 |  | 
11 | CC1CCCCC1NC(=O)CSc1nncn1N (centres undefined) | -27.2 |  | 18.4 µM [falling, single point]
12 | COc1ccc(Cl)cc1NC(=O)c1cc(S(=O)(=O)N2CCCC2)cn1C | 5.19 |  | 
13 | Cc1ccccc1SCC(=O)NNC(=O)c1ccccc1O | 47.1 | 14.6 µM [rising, partial curve] | 13 µM [rising, partial curve, poor fit]
14 | CC(Sc1nc(NC(C)(C)C)nc(N(C)C)n1)C(=O)Nc1ccccc1 (centres undefined) | -58.1 | 16.4 µM [falling, partial curve] | 9.2 µM [falling, partial curve]
15 | CC(NC(=O)C1CCCC1)C1CC2CCC1C2 (centres undefined) | 25.1 | 0.164 µM [rising, full curve] | 0.146 µM [rising, full curve, poor fit]
16 | CC(=O)N1CCN(C(=O)CNC(=O)c2cccs2)CC1 | -1.09 | 0.411 µM [falling, full curve] | 0.92 µM [falling, partial curve]
17 | N/C(=N\OC(=O)CCCOc1ccccc1)c1cccc([N+](=O)[O-])c1 | -13.3 |  | 7.31 µM [falling, partial curve]
18 | COc1ccc(CC(=O)NNC(=O)CSc2nnc(Cc3ccc(OC)cc3)n2-c2ccccc2)cc1 | -15.9 | 2.31 µM [falling, single point] | 0.13 µM [falling, full curve, poor fit]
19 | CCC(=O)N1CCc2cc(Br)cc(S(=O)(=O)NC3CCN(Cc4ccccc4)CC3)c21 | 14.8 |  | 6.51 µM [rising, single point]

Row | SMILES | cell number change [%] | AC50 [1] | AC50 [2]
20 | Cc1ccc(C(=O)NC2CCN(C(=O)NCc3ccccc3)CC2)cc1 | 8.75 |  | 8.2 µM [rising, partial curve]
21 | Cc1ccc(S(=O)(=O)N2CCC(C(=O)NNC(=O)C3CC3)CC2)cc1Cl | -12.4 |  | 
22 | COCC(=O)N=Nc1c(O)[nH]c2ccccc12 | -2.73 | 3.26 µM [rising, single point] | 2.59 µM [rising, partial curve, poor fit]
23 | O=c1c2ccccc2nc(/C=C/c2c[nH]c3ccccc23)n1-c1ccc([N+](=O)[O-])cc1 | 19.5 |  | 29.1 µM [rising, single point]
24 | CCOC(=O)CN/C=C(\C#N)c1ccc(F)cc1 | -16.2 |  | 0.184 µM [falling, full curve]
25 | O=C(OCC(=O)c1ccc[nH]1)c1ccc(Br)cc1 | 3.12 |  | 
26 | Cc1cc(C(=O)CCC(=O)N(C)CC(=O)Nc2ccc(OC(F)(F)F)cc2)c(C)s1 |  | 1.46 µM [rising, partial curve] | 
27 | CSCCC(NS(=O)(=O)c1ccc(C)cc1)C(=O)N1CCCCCCC1 (centres undefined) | -36.1 | 18.4 µM [falling, single point] | 29.1 µM [falling, single point]
28 | CCCCCOc1ccc(Br)cc1CSC(=N)N | -28.1 |  | 6.51 µM [falling, single point]
29 | Cc1cc(C(F)(F)F)nc(NCc2ccc(F)cc2)n1 | -31.3 | 0.731 µM [falling, full curve] | 
30 | CCC(=O)c1ccc(OCC(=O)NC2CCCC2)cc1 | -5.88 |  | 2.91 µM [rising, single point]
31 | CN(Cc1ccc(OC(F)F)cc1)C(=O)C1CCN(S(=O)(=O)c2ccc3c(c2)OCCO3)CC1 | 42.1 | 29.1 µM [rising, single point] | 29.1 µM [rising, single point]
32 | O=[N+]([O-])c1ccc2nc(NS(=O)(=O)c3ccc(F)cc3)sc2c1 | 18.5 | 0.82 µM [rising, full curve, poor fit] | 
33 | COc1cc(SC)ccc1C(=O)OC1CCOC1=O (centres undefined) | -13.1 |  | 3.26 µM [falling, single point]
34 | COc1ccccc1CNC(=O)CNC(=O)c1sc2ccccc2c1Cl | -49.5 | 2.06 µM [falling, partial curve, poor fit] | 
35 | NS(=O)(=O)c1ccc(CNC(=O)c2ccc(Br)o2)cc1 | -18.6 |  | 18.4 µM [falling, partial curve, poor fit]
36 | O=C(O)c1ccc(COc2ccc3ccccc3c2/C=C2/NC(=O)N(Cc3ccc(F)cc3)C2=O)cc1 |  | 0.0058 µM [rising, full curve, poor fit] | 7.31 µM [rising, partial curve]
37 | CCc1ccccc1NC(=O)CCS(=O)(=O)c1ccc2c(c1)CCCN2C(C)=O | -36.5 | 23.1 µM [falling, single point] | 23.1 µM [falling, single point]

Shown as labelled records: part of the list above.
O=C(O)CN1C(=O)S/C(=C\c2cccnc2)C1=O
  cell number change [%]: -1.63; AC50 [1]: 0.00517 µM [falling, full curve, poor fit]
CC(=O)N1CCN(C(=O)CNC(=O)c2cccs2)CC1
  cell number change [%]: -1.09; AC50 [1]: 0.411 µM [falling, full curve]; AC50 [2]: 0.92 µM [falling, partial curve]
